Laboratory results as given in the supplement of paper PMC10849652.
Some of the results follow.

By UniProt entry, the sequences of proteins in these tests, tags left out. Where a name states a change or a piece, a line headed by the entry shows the natural chain unless it says otherwise.
UniProt Q9NTN9: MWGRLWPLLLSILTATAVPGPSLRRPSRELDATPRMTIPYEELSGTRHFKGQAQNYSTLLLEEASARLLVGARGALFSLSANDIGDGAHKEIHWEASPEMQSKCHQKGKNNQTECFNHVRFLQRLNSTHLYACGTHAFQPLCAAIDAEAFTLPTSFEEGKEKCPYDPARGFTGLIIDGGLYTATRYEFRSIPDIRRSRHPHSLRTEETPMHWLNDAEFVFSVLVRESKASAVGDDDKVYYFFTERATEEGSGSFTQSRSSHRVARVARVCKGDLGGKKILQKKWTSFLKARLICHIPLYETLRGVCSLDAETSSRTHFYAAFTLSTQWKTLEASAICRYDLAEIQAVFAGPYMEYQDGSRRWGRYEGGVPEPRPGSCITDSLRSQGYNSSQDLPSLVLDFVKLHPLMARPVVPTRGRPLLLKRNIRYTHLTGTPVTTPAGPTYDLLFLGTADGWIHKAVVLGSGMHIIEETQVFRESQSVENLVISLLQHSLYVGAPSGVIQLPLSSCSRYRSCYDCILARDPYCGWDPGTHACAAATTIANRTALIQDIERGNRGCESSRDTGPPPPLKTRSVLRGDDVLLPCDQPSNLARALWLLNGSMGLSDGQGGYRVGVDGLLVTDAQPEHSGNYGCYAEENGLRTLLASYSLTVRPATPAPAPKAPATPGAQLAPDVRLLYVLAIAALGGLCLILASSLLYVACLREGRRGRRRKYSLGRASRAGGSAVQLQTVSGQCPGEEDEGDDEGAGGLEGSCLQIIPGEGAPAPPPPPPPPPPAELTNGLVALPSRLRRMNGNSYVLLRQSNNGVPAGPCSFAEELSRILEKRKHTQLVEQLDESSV
UniProt Q8N9R8: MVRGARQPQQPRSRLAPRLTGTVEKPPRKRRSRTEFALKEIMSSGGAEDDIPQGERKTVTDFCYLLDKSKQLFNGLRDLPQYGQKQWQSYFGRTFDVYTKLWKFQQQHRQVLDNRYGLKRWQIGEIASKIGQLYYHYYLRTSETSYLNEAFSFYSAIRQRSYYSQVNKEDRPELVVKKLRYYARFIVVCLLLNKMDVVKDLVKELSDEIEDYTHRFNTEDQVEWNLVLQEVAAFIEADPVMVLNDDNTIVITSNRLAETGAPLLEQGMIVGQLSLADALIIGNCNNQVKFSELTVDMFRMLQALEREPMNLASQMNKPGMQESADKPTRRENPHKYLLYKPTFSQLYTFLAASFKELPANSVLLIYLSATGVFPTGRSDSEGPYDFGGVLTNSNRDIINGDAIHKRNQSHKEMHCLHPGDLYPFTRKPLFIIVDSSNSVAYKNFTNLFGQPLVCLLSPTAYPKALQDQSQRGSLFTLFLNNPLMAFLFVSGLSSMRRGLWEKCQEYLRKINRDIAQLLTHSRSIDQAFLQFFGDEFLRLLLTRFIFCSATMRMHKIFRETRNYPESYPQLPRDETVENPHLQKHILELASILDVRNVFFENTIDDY
UniProt Q6UWP8: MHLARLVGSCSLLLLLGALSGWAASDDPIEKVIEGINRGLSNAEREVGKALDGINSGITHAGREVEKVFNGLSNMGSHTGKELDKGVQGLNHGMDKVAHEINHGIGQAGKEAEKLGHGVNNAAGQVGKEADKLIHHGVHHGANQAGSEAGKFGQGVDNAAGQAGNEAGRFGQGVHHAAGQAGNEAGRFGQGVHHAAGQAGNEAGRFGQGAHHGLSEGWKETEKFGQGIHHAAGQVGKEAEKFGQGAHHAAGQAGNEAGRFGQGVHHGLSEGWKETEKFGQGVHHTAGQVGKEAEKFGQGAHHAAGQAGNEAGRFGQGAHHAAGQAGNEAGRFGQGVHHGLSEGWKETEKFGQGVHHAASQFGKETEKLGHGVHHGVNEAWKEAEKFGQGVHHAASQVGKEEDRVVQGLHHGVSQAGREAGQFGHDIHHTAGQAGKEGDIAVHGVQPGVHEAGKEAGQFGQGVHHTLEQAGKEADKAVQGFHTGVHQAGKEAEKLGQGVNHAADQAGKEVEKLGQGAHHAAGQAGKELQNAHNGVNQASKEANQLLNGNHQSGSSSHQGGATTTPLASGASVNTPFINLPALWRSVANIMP
UniProt Q6SZW1: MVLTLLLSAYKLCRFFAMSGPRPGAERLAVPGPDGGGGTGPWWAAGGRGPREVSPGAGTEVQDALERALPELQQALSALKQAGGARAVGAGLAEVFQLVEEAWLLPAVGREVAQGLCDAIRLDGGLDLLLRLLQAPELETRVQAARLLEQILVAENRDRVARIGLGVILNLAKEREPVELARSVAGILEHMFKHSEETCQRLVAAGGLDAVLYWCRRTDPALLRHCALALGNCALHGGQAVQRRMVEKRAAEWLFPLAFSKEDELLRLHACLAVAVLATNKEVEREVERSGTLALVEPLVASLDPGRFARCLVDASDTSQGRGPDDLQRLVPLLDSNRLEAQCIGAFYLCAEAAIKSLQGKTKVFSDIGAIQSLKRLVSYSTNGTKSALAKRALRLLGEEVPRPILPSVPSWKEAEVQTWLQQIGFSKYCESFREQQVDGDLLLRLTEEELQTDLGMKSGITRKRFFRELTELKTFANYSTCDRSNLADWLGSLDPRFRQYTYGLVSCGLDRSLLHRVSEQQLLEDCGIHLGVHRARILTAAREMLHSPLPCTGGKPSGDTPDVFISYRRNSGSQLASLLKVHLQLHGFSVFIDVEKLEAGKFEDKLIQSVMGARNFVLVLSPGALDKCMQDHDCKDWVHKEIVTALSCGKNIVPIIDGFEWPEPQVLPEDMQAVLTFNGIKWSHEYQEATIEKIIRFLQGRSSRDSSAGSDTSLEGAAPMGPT
UniProt O00560: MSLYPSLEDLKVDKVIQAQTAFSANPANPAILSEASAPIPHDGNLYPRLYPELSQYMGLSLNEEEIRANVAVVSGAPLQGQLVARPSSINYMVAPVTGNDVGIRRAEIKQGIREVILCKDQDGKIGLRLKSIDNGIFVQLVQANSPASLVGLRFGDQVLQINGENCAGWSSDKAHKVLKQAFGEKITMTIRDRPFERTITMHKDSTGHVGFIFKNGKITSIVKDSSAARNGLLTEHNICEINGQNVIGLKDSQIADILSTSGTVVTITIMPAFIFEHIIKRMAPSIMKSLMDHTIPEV
UniProt O14521: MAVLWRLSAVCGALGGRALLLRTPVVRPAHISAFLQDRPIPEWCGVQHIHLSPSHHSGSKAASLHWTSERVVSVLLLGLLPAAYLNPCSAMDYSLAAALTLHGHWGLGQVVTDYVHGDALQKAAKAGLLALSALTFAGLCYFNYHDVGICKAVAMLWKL
UniProt Q9BY50: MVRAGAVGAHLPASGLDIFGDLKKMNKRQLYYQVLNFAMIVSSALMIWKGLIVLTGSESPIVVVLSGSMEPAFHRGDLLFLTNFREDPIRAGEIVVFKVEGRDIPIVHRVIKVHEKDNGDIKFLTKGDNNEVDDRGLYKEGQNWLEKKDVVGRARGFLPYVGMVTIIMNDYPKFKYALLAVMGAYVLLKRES
UniProt Q14242: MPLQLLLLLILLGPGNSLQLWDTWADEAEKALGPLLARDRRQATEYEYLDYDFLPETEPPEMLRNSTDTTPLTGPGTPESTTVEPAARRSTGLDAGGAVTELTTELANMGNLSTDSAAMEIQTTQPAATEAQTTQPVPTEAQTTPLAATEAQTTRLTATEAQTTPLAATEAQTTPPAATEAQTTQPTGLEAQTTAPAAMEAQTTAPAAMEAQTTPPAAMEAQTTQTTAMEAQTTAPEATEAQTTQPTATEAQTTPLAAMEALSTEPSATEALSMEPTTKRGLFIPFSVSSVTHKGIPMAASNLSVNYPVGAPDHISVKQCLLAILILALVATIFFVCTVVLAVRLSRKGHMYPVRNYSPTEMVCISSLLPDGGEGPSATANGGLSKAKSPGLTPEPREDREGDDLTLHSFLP
UniProt O15027: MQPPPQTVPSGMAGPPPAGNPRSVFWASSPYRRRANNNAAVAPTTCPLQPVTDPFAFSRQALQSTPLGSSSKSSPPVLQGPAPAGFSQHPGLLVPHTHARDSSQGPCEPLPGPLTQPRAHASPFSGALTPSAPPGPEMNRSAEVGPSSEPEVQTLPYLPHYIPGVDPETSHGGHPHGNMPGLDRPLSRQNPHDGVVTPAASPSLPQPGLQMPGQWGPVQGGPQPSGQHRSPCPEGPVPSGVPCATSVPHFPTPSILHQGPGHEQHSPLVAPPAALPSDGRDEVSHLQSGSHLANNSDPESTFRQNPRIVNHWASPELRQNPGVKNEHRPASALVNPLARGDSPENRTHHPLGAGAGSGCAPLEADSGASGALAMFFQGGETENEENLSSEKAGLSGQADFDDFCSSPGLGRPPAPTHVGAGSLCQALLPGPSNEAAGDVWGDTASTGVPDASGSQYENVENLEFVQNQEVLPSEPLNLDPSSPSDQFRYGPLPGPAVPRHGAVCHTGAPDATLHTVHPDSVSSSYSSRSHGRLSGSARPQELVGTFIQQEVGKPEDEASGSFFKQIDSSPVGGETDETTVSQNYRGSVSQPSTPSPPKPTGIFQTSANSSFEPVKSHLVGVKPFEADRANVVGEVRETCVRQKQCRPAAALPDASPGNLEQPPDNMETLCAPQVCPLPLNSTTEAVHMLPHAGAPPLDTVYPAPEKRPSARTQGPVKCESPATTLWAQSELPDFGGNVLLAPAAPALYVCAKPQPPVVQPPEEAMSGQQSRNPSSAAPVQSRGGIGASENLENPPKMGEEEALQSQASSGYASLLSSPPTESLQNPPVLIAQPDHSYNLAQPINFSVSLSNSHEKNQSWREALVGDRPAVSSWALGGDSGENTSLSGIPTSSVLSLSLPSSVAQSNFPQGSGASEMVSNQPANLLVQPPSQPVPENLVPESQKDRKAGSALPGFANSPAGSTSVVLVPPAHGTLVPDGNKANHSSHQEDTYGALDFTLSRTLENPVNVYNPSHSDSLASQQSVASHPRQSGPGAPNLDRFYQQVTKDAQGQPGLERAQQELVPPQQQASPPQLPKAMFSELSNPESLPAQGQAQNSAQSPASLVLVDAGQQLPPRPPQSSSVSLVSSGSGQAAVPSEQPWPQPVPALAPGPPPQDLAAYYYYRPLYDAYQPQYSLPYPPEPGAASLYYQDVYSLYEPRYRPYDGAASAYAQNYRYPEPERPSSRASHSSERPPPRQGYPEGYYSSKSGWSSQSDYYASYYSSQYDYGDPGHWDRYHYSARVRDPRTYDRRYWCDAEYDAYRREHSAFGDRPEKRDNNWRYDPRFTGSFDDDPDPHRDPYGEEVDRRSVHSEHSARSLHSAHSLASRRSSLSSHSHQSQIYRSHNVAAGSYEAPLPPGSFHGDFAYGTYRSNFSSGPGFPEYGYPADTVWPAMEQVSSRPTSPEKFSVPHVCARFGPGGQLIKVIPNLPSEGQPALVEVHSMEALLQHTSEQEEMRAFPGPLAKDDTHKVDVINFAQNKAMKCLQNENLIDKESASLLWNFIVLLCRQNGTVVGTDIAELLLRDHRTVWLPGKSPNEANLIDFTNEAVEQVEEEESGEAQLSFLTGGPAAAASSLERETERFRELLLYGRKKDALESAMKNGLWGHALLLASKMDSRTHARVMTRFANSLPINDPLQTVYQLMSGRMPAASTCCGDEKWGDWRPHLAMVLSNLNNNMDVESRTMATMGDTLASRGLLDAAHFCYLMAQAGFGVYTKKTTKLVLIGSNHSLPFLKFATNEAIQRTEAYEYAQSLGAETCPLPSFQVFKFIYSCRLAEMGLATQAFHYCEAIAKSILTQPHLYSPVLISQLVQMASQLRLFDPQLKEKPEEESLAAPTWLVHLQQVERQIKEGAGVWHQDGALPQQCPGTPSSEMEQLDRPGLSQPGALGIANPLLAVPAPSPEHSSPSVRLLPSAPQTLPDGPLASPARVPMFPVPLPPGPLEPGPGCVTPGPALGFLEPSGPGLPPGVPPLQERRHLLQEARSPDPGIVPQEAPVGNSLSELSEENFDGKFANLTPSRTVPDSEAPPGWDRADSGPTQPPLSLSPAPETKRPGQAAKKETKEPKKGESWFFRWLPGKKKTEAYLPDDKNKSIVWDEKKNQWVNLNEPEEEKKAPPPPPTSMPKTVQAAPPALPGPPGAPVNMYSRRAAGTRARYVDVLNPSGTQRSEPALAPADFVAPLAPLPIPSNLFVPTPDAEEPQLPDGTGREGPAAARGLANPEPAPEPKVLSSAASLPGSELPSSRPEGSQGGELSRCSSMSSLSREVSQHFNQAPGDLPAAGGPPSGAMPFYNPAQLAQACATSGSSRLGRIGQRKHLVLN
UniProt Q9HAJ7: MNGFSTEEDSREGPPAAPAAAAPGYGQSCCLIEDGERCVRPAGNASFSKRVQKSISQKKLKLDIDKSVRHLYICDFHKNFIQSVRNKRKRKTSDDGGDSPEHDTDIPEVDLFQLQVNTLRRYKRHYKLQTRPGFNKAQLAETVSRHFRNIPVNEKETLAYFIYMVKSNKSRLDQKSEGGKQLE
UniProt Q9UIL1: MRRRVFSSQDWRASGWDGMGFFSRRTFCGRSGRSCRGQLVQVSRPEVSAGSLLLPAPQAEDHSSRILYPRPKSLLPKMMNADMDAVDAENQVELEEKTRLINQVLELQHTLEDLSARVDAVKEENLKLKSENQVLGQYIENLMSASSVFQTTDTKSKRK
UniProt P60896: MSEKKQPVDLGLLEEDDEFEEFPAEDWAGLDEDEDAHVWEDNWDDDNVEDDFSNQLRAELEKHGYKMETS

Key:
Assay in all cases: log2 fold change, soluble protein after heating vs DMSO (PISA); higher = thermal stabilisation; K562 lysate, 10 uM; active = over 0.2 and 3.5 SD of the protein, either way, in both replicates (recomputed)
[1] = compound: CN1CC[C@H](c2c(O)cc(O)c3c(=O)cc(-c4ccccc4Cl)oc23)[C@H](O)C1 [alvocidib]
Outline: (§1)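 Values give the log-two fold change in thermal stability against solvent controls, from duplicates. Crude K562 extract at 1 mg/mL protein, made by dounce homogenisation in PBS pH 7.4 with 1 mM MgCl2, was treated with 10 μM compound for 30 min. After 3 min heating across 48°C-58°C, aliquots were pooled, adjusted to 0.5% NP-40 at 4°C and centrifuged at 21,000xg for 90 min. The supernatant was measured by TMTpro 16plex LC-MS/MS with channel sums equalised.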

[2] = compound: CN1CCc2c(c3ccccc3n2Cc2ccc(C(=O)NO)cc2)C1 [Tubastatin A]
Outline: as §1

[3] = compound: CNC(=O)C1=CC=CC=C1NC2=NC(=NC=C2Cl)NC3=C(C=C(C=C3)N4CCOCC4)OC
Outline: as §1

[4] = compound: CNc1nc(-c2ccc3c(N)n[nH]c3c2)cc(N2C[C@@H](C(=O)NC3CCCCC3)CC[C@H]2C)n1
Outline: as §1

[5] = compound: COc1cc(Nc2ncc3c(n2)-c2ccc(Cl)cc2C(c2c(F)cccc2OC)=NC3)ccc1C(=O)O [alisertib]
Outline: as §1

[6] = compound: COc1cc2nc(-c3cc(F)ccc3O)nc(N[C@@H]3CNC[C@H]3C(C)(C)O)c2cc1OC
Outline: as §1

[7] = compound: COc1cc2ncnc(Nc3ccc(F)c(Cl)c3)c2cc1OCCCN1CCOCC1 [gefitinib]
Outline: as §1

[8] = compound: CS(=O)(=O)CCNCc1ccc(-c2ccc3ncnc(Nc4ccc(OCc5cccc(F)c5)c(Cl)c4)c3c2)o1 [lapatinib]
Outline: as §1

[9] = compound: CS(=O)(=O)N1CCN(Cc2cc3nc(-c4cccc5[nH]ncc45)nc(N4CCOCC4)c3s2)CC1 [pictilisib]
Outline: as §1

[10] = compound: C[C@H](C1=CC=C(C=C1)C(=O)NC2=C3C=CNC3=NC=C2)N
Outline: as §1

[11] = compound: C[C@H](Nc1ncnc2nc[nH]c12)c1cc2cccc(Cl)c2c(=O)n1-c1ccccc1 [duvelisib]
Outline: as §1

[12] = compound: Cc1cc(Nc2cc(CN3CCOCC3)c3nc(C)c(Cc4ccc(Cl)cc4F)n3n2)n[nH]1 [gandotinib]
Outline: as §1

[13] = compound: Cc1ccc(NC(=O)c2ccc(CN3CC[C@H](N(C)C)C3)c(C(F)(F)F)c2)cc1Nc1nccc(-c2cncnc2)n1 [bafetinib]
Outline: as §1

[14] = compound: Cc1cccc(CC(=O)N2CCc3c2ccc(-c2cn(C)c4ncnc(N)c24)c3F)n1
Outline: as §1

[15] = compound: CNC(=O)c1ccc(Nc2ncc(C(F)(F)F)c(NCc3nccnc3N(C)S(C)(=O)=O)n2)cc1 [defactinib]
Outline: as §1

[16] = compound: COC(=O)N[C@@H](C)CNc1nccc(-c2cn(C(C)C)nc2-c2cc(Cl)cc(NS(C)(=O)=O)c2F)n1 [encorafenib]
Outline: as §1

[17] = compound: COC(=O)[C@H](CCSC)NC(=O)C1=C(C=C(C=C1)NC[C@H](CS)N)C2=CC=CC=C2
Outline: as §1

[18] = compound: C[C@@H](Oc1cc(-c2cnn(C3CCNCC3)c2)cnc1N)c1c(Cl)ccc(F)c1Cl [crizotinib]
Outline: as §1

[19] = compound: Cc1cc(Nc2cc(N3CCN(C)CC3)nc(Sc3ccc(NC(=O)C4CC4)cc3)n2)n[nH]1 [tozasertib]
Outline: as §1

[20] = compound: Cc1ccc(-n2nc(C(C)(C)C)cc2NC(=O)Nc2ccc(OCCN3CCOCC3)c3ccccc23)cc1 [doramapimod]
Outline: as §1

Measured: log2 fold change

SEC31A (UniProt H0YAB3)
inactive: [1] -0.031 | [2] 0.006 | [3] -0.093 | [4] -0.011 | [5] -0.1 | [6] -0.097 | [7] -0.023 | [8] -0.021 | [9] -0.016 | [10] -0.053 | [11] 0.043 | [12] 0.022 | [13] 0.018 | [14] 0.057

SEMA4G isoform 2 (UniProt Q9NTN9)
inactive: [1] -0.116 | [3] 0.122 | [15] -0.047 | [4] 0.143 | [16] -0.193 | [17] 0.215 | [18] -0.084 | [10] 0.036 | [11] -0.294 | [12] 0.019 | [19] 0.082 | [20] -0.053 | [14] -0.024

SCAI isoform 2 (UniProt Q8N9R8)
inactive: [1] -0.164 | [2] -0.461 | [15] -0.024 | [16] -0.105 | [17] 0.039 | [5] -0.635 | [7] 0.045 | [9] 0 | [10] 0.231 | [12] -0.089 | [19] 0.13 | [13] -0.107 | [14] 0.097

SEPTIN8 (UniProt F8W8I8)
inactive: [1] -0.136 | [2] 0.053 | [3] 0.026 | [4] 0.087 | [5] 0.041 | [6] 0.019 | [7] -0.021 | [8] -0.016 | [10] -0.257 | [11] -0.035 | [12] 0.215 | [14] 0.091

SDHAF4 (UniProt Q5VUM1)
inactive: [1] -0.033 | [3] 0.045 | [15] 0.05 | [4] -0.024 | [16] 0 | [17] -0.014 | [6] -0.018 | [8] 0.052 | [9] 0.012 | [18] 0.092 | [10] 0.004 | [11] 0.04 | [12] 0 | [19] -0.021 | [20] -0.105 | [13] -0.03 | [14] 0.054

SDHC (UniProt Q99643)
inactive: [1] -0.114 | [2] -0.056 | [3] 0.047 | [15] 0.146 | [4] 0.097 | [16] 0.034 | [17] 0.055 | [5] 0.018 | [6] -0.007 | [7] 0.011 | [8] 0.002 | [9] 0.071 | [18] 0.032 | [10] -0.244 | [11] 0.004 | [12] 0.179 | [19] -0.067 | [20] 0.016 | [13] -0.004 | [14] 0.133

SAP130 isoform 3 (UniProt Q9H0E3)
inactive: [1] -0.05 | [2] 0.058 | [3] 0.146 | [15] -0.044 | [4] 0.003 | [16] 0.06 | [17] 0.041 | [6] -0.01 | [8] 0.045 | [18] -0.03 | [10] 0.034 | [11] 0.057 | [12] 0.131 | [19] -0.087 | [20] 0.057 | [14] -0.032

SBSN (UniProt Q6UWP8)
inactive: [1] 0.255 | [3] -0.162 | [10] 0.312 | [12] -0.197 | [14] 0.132

SARM1 (UniProt Q6SZW1)
inactive: [1] 0.058 | [3] -0.144 | [5] 0.144 | [6] 0.104 | [7] -0.04 | [8] -0.119 | [10] 0.085 | [12] 0.025 | [14] -0.03

SDCBP isoform 2 (UniProt O00560)
inactive: [1] -0.279 | [2] 0.113 | [3] -0.12 | [4] 0.097 | [5] -0.105 | [7] -0.06 | [9] -0.006 | [18] -0.062 | [10] -0.074 | [11] -0.019 | [12] 0.066 | [20] 0.038 | [13] -0.057 | [14] 0.328

SDHD (UniProt O14521)
inactive: [1] 0.086 | [2] -0.043 | [3] 0.127 | [15] 0.296 | [4] 0.056 | [16] 0.018 | [17] -0.033 | [5] -0.019 | [6] -0.027 | [7] -0.082 | [8] -0.137 | [18] -0.146 | [10] -0.068 | [11] -0.074 | [12] 0.25 | [19] -0.055 | [20] 0.017 | [14] 0.051

SEC11C (UniProt Q9BY50)
inactive: [1] 0.018 | [2] 0.098 | [3] 0.01 | [15] 0.019 | [4] 0.012 | [5] 0.006 | [6] -0.013 | [7] -0.061 | [8] -0.05 | [9] -0.028 | [18] -0.168 | [10] -0.083 | [11] -0.064 | [12] 0.08 | [20] 0.03 | [13] 0.012 | [14] 0.208

SENP7 (UniProt Q9BQF6)
inactive: [1] 0 | [2] -0.152 | [4] 0.016 | [16] 0.109 | [17] -0.045 | [5] -0.036 | [7] 0.009 | [18] 0.143 | [10] -0.211 | [11] 0.108 | [12] -0.024 | [19] 0.036 | [20] 0.076 | [14] 0.139

SAE1 (UniProt M0R286)
inactive: [3] -0.035 | [15] -0.143 | [4] 0.03 | [16] 0.13 | [17] 0.019 | [6] 0.23 | [8] -0.102 | [11] 0.032 | [19] 0.148

Two successive records already listed:
SEC11C (UniProt Q9BY50)
inactive: [1] 0.018 | [2] 0.098 | [3] 0.01 | [15] 0.019 | [4] 0.012 | [5] 0.006 | [6] -0.013 | [7] -0.061 | [8] -0.05 | [9] -0.028 | [18] -0.168 | [10] -0.083 | [11] -0.064 | [12] 0.08 | [20] 0.03 | [13] 0.012 | [14] 0.208

SENP7 (UniProt Q9BQF6)
inactive: [1] 0 | [2] -0.152 | [4] 0.016 | [16] 0.109 | [17] -0.045 | [5] -0.036 | [7] 0.009 | [18] 0.143 | [10] -0.211 | [11] 0.108 | [12] -0.024 | [19] 0.036 | [20] 0.076 | [14] 0.139

Continued:

SDC3 (UniProt O75056)
inactive: [2] -0.031 | [3] 0.071 | [4] -0.041 | [18] 0.003 | [11] -0.157 | [20] 0.045

SAFB2 (UniProt K7EQU4)
inactive: [4] 0.159 | [5] 0.019 | [7] -0.168 | [9] -0.025 | [18] -0.055 | [11] -0.055 | [20] -0.017 | [13] 0.039

SEC14L1 isoform 2 (UniProt Q92503)
inactive: [15] -0.075 | [6] 0.17 | [8] -0.16

SACS (UniProt Q9NZJ4)
inactive: [5] -0.133 | [7] 0.025

SELPLG isoform 2 (UniProt Q14242)
inactive: [6] 0.028 | [8] 0.089

SEC16A isoform 3 (UniProt O15027)
inactive: [2] -0.008 | [4] 0.023 | [11] 0.024

SAP30L (UniProt Q9HAJ7)
inactive: [2] 0.235 | [3] -0.08 | [18] -0.029 | [20] -0.047

SALL1 (UniProt Q9NSC2)
inactive: [1] 0.202 | [16] 0.086 | [17] -0.077 | [5] 0.226 | [7] -0.055 | [10] 0.591 | [12] -0.223 | [19] -0.016 | [14] -0.417

SCOC (UniProt Q9UIL1)
inactive: [2] 0.257 | [3] -0.067 | [4] 0.01 | [18] 0.02 | [11] 0.118 | [20] -0.017

SEC16A isoform 2 (UniProt O15027)
inactive: [2] 0.023

SENP5 (UniProt Q96HI0)
inactive: [2] 0.001 | [3] -0.036 | [15] 0.099 | [4] -0.008 | [16] -0.017 | [17] 0.217 | [5] -0.003 | [6] 0.14 | [7] 0.059 | [8] -0.124 | [9] -0.29 | [18] -0.076 | [11] 0.016 | [19] -0.011 | [20] 0.011 | [13] -0.045

SEM1 (UniProt P60896)
inactive: [3] 0.04

SENP8 (UniProt Q96LD8)
inactive: [2] 0.118 | [3] 0.044 | [15] -0.021 | [4] 0.043 | [16] 0.044 | [17] -0.167 | [5] 0.031 | [6] 0 | [7] 0.058 | [8] -0.004 | [9] -0.062 | [18] -0.143 | [11] 0.078 | [19] -0.148 | [20] 0.012 | [13] 0.107
